These are yes or no findings as the source states them, for the method shown. Some entries that bind do so weakly or less than the wild type. For some assays here: Sequences can lack the tags named with a protein. Blank lines part the entries; values can stand above or below the binder they belong to.
What was measured:
[1] = biological target: T1, MSLN (UniProt Q13421 296-580, limits assumed); assay: membrane protein array chip
T1 construct: also called mesothelin

By UniProt entry, the sequences of proteins in these tests, tags left out. Where a name states a change or a piece, a line headed by the entry shows the natural chain unless it says otherwise. Chains listed by the source or under a name are the forms on record and can include a tag or linker.
MSLN (Q13421, form named): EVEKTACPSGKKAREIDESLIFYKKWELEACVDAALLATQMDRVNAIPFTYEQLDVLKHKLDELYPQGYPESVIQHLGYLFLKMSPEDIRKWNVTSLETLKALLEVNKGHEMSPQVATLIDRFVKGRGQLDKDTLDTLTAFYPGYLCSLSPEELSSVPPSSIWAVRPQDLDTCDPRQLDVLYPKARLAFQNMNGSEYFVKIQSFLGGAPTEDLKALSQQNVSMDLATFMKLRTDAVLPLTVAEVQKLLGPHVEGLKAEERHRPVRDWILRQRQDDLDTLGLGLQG

[2] = biological target: T2, Human Claudin18.2 His tag protein (human, UniProt P56856-2 1-261, limits assumed); assay: BLI (Octet), antibody on Protein A biosensor
T2 construct: also called Claudin18.2 protein; not shown: His tag
T2 sequence (looked up): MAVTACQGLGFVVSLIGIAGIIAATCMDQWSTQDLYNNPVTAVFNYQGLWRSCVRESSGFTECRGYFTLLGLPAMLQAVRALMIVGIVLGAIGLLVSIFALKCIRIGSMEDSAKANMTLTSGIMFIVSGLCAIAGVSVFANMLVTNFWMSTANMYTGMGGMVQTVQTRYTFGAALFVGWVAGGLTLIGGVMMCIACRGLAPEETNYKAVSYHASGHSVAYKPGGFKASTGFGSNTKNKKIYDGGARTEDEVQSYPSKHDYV
Procedure: The affinity of Claudin18.2 nanobodies was determined. The affinity of the antibodies was measured using the Fortebio Octet® detection instrument based on the biolayer interferometry (BLI) technique.
After the 5 antibodies were immobilized on the Protein A biosensor, the antibodies could bind to the Human Claudin18.2 His tag protein. The measured affinity was calculated using Data Analysis 11 software of the Octet RED96e (ForteBio). The affinities (KD values) of antibody NCLD04 and antibody NCLD31 for the Claudin18.2 protein are both favorable.

- binding [1]: binds
B1: NM5 (VHH)
VHH: DVQLQESGGGLVQAGGSLRLSCVGAGVSFSPYGIGWWRQAQGNQREWVASIYRSGSTNYEDFAKDRFTISRDNTKNTAYLQMNSLKPEDTAVYYCQILGTSYRGQGTQVTVSS
notes: also called nanobody NM5; NM5 antibody

- binding [2]: binds
B2: NCLD14 (VHH-IgG1 Fc) (Fc fusion)
chain: DVQLQESGGGLVQPGGSLRLSCATSGFTFSTYNMGWFRQAPGKEREFVGSIKWSASTTYYADSVKGRFTISRDNAKNTVYLQMNSLKPEDTAIYYCAGSPHIALGTRTEMYPYWGQGTQVTVSS
notes: Tested as VHH-IgG1 Fc; also called antibody NCLD14; not shown: IgG1 Fc fused to the VHH

From patent US20250312452A1 (BRISTAR IMMUNOTECH, published 2025)
